Converted amounts (≈) assume the structure as drawn. This continues a long series; more values of the same kind are listed elsewhere.
Legend:
Mannheimia haemolytica = assay: minimum inhibitory concentration (MIC)
Method: (§1)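 Broth microdilution MIC (Sensititre BOPO7F bovine plate, CLSI methods) of 19 antimicrobials against field isolates of P. multocida, M. haemolytica, H. somni (deep nasopharyngeal swabs) and E. coli, Enterococcus spp. (rectal swabs) from weaned dairy heifers. Incubation 16-24 h at 35 C. MIC is the lowest concentration preventing visible growth. Values with <= or > lie at the tested range limits. Trimethoprim-sulfamethoxazole is given as the trimethoprim component of a 1:19 mixture.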

Pasteurella multocida = assay: minimum inhibitory concentration (MIC)
Method: as §1

CCCNC[C@]1(O)[C@H](C)O[C@@H](O[C@H]2[C@H](C)[C@@H](O[C@@H]3O[C@H](C)C[C@H](N(C)C)[C@H]3O)[C@](C)(O)C[C@@H](C)CN[C@H](C)[C@@H](O)[C@](C)(O)[C@@H](CC)OC(=O)[C@@H]2C)C[C@@]1(C)OC [Tulathromycin]
minimum inhibitory concentration [µg/mL]
Conditions | Mannheimia haemolytica | Pasteurella multocida
isolate (source animal id): 3 | ≤ 8 | –
isolate (source animal id): 30 | – | 32 (≈ 39.7 µM)
isolate (source animal id): 34 | – | 16 (≈ 19.8 µM)
isolate (source animal id): 36 | – | 16 (≈ 19.8 µM)
isolate (source animal id): 37 | – | 16 (≈ 19.8 µM)
isolate (source animal id): 46 | – | ≤ 8
isolate (source animal id): 48 | – | 16 (≈ 19.8 µM)
isolate (source animal id): 49 | – | ≤ 8
isolate (source animal id): 54 | – | ≤ 8
isolate (source animal id): 55 | – | 16 (≈ 19.8 µM)
isolate (source animal id): 58 | – | ≤ 8
isolate (source animal id): 60 | > 64 | ≤ 8
isolate (source animal id): 61 | 32 (≈ 39.7 µM) | 32 (≈ 39.7 µM)
isolate (source animal id): 63 | – | 16 (≈ 19.8 µM)
isolate (source animal id): 64 | ≤ 8 | ≤ 8
isolate (source animal id): 65 | 32 (≈ 39.7 µM) | 32 (≈ 39.7 µM)
isolate (source animal id): 66 | > 64 | > 64
isolate (source animal id): 67 | 32 (≈ 39.7 µM) | ≤ 8
isolate (source animal id): 68 | ≤ 8 | –
isolate (source animal id): 69 | – | 16 (≈ 19.8 µM)
isolate (source animal id): 70 | > 64 | –
isolate (source animal id): 72 | ≤ 8 | –
isolate (source animal id): 73 | – | ≤ 8
isolate (source animal id): 74 | 32 (≈ 39.7 µM) | –
isolate (source animal id): 75 | – | ≤ 8
isolate (source animal id): 76 | ≤ 8 | 16 (≈ 19.8 µM)
isolate (source animal id): 77 | – | > 64
isolate (source animal id): 78 | – | 16 (≈ 19.8 µM)
isolate (source animal id): 80 | 16 (≈ 19.8 µM) | 16 (≈ 19.8 µM)
isolate (source animal id): 82 | > 64 | 16 (≈ 19.8 µM)
isolate (source animal id): 83 | ≤ 8 | 16 (≈ 19.8 µM)
isolate (source animal id): 84 | > 64 | –
isolate (source animal id): 85 | 16 (≈ 19.8 µM) | –
isolate (source animal id): 86 | 16 (≈ 19.8 µM) | –
isolate (source animal id): 87 | 16 (≈ 19.8 µM) | –
isolate (source animal id): 88 | – | 64 (≈ 79.4 µM)
isolate (source animal id): 92 | – | > 64
isolate (source animal id): 94 | – | ≤ 8
isolate (source animal id): 318 | – | ≤ 8
isolate (source animal id): 319 | – | ≤ 8
isolate (source animal id): 320 | – | 16 (≈ 19.8 µM)
isolate (source animal id): 321 | – | 16 (≈ 19.8 µM)
isolate (source animal id): 322 | – | ≤ 8
isolate (source animal id): 324 | – | > 64
isolate (source animal id): 325 | – | ≤ 8
isolate (source animal id): 328 | – | ≤ 8
isolate (source animal id): 330 | – | 16 (≈ 19.8 µM)
isolate (source animal id): 331 | – | ≤ 8
isolate (source animal id): 333 | – | ≤ 8
isolate (source animal id): 336 | – | 16 (≈ 19.8 µM)
isolate (source animal id): 337 | – | ≤ 8
isolate (source animal id): 339 | – | 16 (≈ 19.8 µM)
isolate (source animal id): 340 | – | ≤ 8
isolate (source animal id): 341 | – | ≤ 8

CCCN1C[C@H](C)[C@@H](O)[C@](C)(O)[C@@H](CC)OC(=O)[C@H](C)[C@@H](O[C@H]2C[C@@](C)(OC)[C@@H](O)[C@H](C)O2)[C@H](C)[C@@H](O[C@@H]2O[C@H](C)C[C@H](N(C)C)[C@H]2O)[C@](C)(O)C[C@H]1C [Gamithromycin]
minimum inhibitory concentration [µg/mL]
Conditions | Mannheimia haemolytica | Pasteurella multocida
isolate (source animal id): 3 | ≤ 1 | –
isolate (source animal id): 30 | – | 8 (≈ 10.3 µM)
isolate (source animal id): 34 | – | 8 (≈ 10.3 µM)
isolate (source animal id): 36 | – | 4 (≈ 5.15 µM)
isolate (source animal id): 37 | – | 4 (≈ 5.15 µM)
isolate (source animal id): 46 | – | ≤ 1
isolate (source animal id): 48 | – | 8 (≈ 10.3 µM)
isolate (source animal id): 49 | – | 8 (≈ 10.3 µM)
isolate (source animal id): 54 | – | 8 (≈ 10.3 µM)
isolate (source animal id): 55 | – | 8 (≈ 10.3 µM)
isolate (source animal id): 58 | – | ≤ 1
isolate (source animal id): 60 | > 8 | 8 (≈ 10.3 µM)
isolate (source animal id): 61 | 8 (≈ 10.3 µM) | 8 (≈ 10.3 µM)
isolate (source animal id): 63 | – | 8 (≈ 10.3 µM)
isolate (source animal id): 64 | ≤ 1 | ≤ 1
isolate (source animal id): 65 | 8 (≈ 10.3 µM) | 8 (≈ 10.3 µM)
isolate (source animal id): 66 | > 8 | > 8
isolate (source animal id): 67 | 8 (≈ 10.3 µM) | 8 (≈ 10.3 µM)
isolate (source animal id): 68 | ≤ 1 | –
isolate (source animal id): 69 | – | > 8
isolate (source animal id): 70 | > 8 | –
isolate (source animal id): 72 | ≤ 1 | –
isolate (source animal id): 73 | – | 8 (≈ 10.3 µM)
isolate (source animal id): 74 | 8 (≈ 10.3 µM) | –
isolate (source animal id): 75 | – | 8 (≈ 10.3 µM)
isolate (source animal id): 76 | ≤ 1 | 8 (≈ 10.3 µM)
isolate (source animal id): 77 | – | > 8
isolate (source animal id): 78 | – | 8 (≈ 10.3 µM)
isolate (source animal id): 80 | 2 (≈ 2.57 µM) | > 8
isolate (source animal id): 82 | > 8 | > 8
isolate (source animal id): 83 | ≤ 1 | > 8
isolate (source animal id): 84 | > 8 | –
isolate (source animal id): 85 | 4 (≈ 5.15 µM) | –
isolate (source animal id): 86 | 2 (≈ 2.57 µM) | –
isolate (source animal id): 87 | 2 (≈ 2.57 µM) | –
isolate (source animal id): 88 | – | > 8
isolate (source animal id): 92 | – | > 8
isolate (source animal id): 94 | – | 8 (≈ 10.3 µM)
isolate (source animal id): 318 | – | 8 (≈ 10.3 µM)
isolate (source animal id): 319 | – | 8 (≈ 10.3 µM)
isolate (source animal id): 320 | – | > 8
isolate (source animal id): 321 | – | > 8
isolate (source animal id): 322 | – | 8 (≈ 10.3 µM)
isolate (source animal id): 324 | – | > 8
isolate (source animal id): 325 | – | 8 (≈ 10.3 µM)
isolate (source animal id): 328 | – | 8 (≈ 10.3 µM)
isolate (source animal id): 330 | – | 8 (≈ 10.3 µM)
isolate (source animal id): 331 | – | ≤ 1
isolate (source animal id): 333 | – | 8 (≈ 10.3 µM)
isolate (source animal id): 336 | – | > 8
isolate (source animal id): 337 | – | 8 (≈ 10.3 µM)
isolate (source animal id): 339 | – | > 8
isolate (source animal id): 340 | – | 8 (≈ 10.3 µM)
isolate (source animal id): 341 | – | 8 (≈ 10.3 µM)

CC[C@H]1OC(=O)C[C@@H](O)[C@H](C)[C@@H](O[C@@H]2O[C@H](C)[C@@H](O)[C@H](N(C)C)[C@H]2O)[C@@H](CCN2CCCCC2)C[C@@H](C)C(=O)/C=C/C(C)=C/[C@@H]1CN1CCCCC1 [Tildipirosin]
minimum inhibitory concentration [µg/mL]
Conditions | Mannheimia haemolytica | Pasteurella multocida
isolate (source animal id): 3 | ≤ 1 | –
isolate (source animal id): 30 | – | > 16
isolate (source animal id): 34 | – | > 16
isolate (source animal id): 36 | – | > 16
isolate (source animal id): 37 | – | > 16
isolate (source animal id): 46 | – | ≤ 1
isolate (source animal id): 48 | – | > 16
isolate (source animal id): 49 | – | > 16
isolate (source animal id): 54 | – | > 16
isolate (source animal id): 55 | – | > 16
isolate (source animal id): 58 | – | ≤ 1
isolate (source animal id): 60 | > 16 | > 16
isolate (source animal id): 61 | > 16 | > 16
isolate (source animal id): 63 | – | > 16
isolate (source animal id): 64 | ≤ 1 | ≤ 1
isolate (source animal id): 65 | > 16 | > 16
isolate (source animal id): 66 | > 16 | > 16
isolate (source animal id): 67 | > 16 | > 16
isolate (source animal id): 68 | ≤ 1 | –
isolate (source animal id): 69 | – | > 16
isolate (source animal id): 70 | > 16 | –
isolate (source animal id): 72 | ≤ 1 | –
isolate (source animal id): 73 | – | > 16
isolate (source animal id): 74 | > 16 | –
isolate (source animal id): 75 | – | > 16
isolate (source animal id): 76 | ≤ 1 | > 16
isolate (source animal id): 77 | – | > 16
isolate (source animal id): 78 | – | > 16
isolate (source animal id): 80 | 8 (≈ 10.9 µM) | > 16
isolate (source animal id): 82 | > 16 | > 16
isolate (source animal id): 83 | ≤ 1 | > 16
isolate (source animal id): 84 | > 16 | –
isolate (source animal id): 85 | 16 (≈ 21.8 µM) | –
isolate (source animal id): 86 | 16 (≈ 21.8 µM) | –
isolate (source animal id): 87 | 16 (≈ 21.8 µM) | –
isolate (source animal id): 88 | – | > 16
isolate (source animal id): 92 | – | > 16
isolate (source animal id): 94 | – | > 16
isolate (source animal id): 318 | – | > 16
isolate (source animal id): 319 | – | > 16
isolate (source animal id): 320 | – | > 16
isolate (source animal id): 321 | – | > 16
isolate (source animal id): 322 | – | > 16
isolate (source animal id): 324 | – | > 16
isolate (source animal id): 325 | – | > 16
isolate (source animal id): 328 | – | > 16
isolate (source animal id): 330 | – | > 16
isolate (source animal id): 331 | – | ≤ 1
isolate (source animal id): 333 | – | > 16
isolate (source animal id): 336 | – | > 16
isolate (source animal id): 337 | – | > 16
isolate (source animal id): 339 | – | > 16
isolate (source animal id): 340 | – | > 16
isolate (source animal id): 341 | – | > 16

— the supplement of paper PMC8612539
